For 1 molecule, binding results are on record in PMC3215731.

Chains of the proteins cited; added tags and fusions are not shown. Residues count along the entry.
UniProt P20333, residues 23-461: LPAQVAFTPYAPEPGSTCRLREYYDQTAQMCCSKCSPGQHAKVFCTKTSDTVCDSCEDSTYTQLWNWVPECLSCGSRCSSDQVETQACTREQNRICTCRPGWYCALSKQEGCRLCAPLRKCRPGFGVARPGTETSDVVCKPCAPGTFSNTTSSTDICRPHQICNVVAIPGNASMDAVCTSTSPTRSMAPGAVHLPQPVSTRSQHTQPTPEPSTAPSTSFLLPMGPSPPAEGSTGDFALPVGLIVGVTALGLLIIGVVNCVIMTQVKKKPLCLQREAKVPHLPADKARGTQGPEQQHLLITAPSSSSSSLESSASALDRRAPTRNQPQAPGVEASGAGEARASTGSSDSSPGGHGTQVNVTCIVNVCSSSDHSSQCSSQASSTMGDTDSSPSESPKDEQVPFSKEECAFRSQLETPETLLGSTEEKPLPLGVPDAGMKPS

The assay deals with human TNF receptor 2 (huTNFR2) expressed in R2 MEF (human) (UniProt P20333). Briefly: co-IP; R2 MEF stimulated with TNC-scTNFR2 (20 ng/ml) for the indicated times; lysis in 0.5% Triton X-100, 0.5% NP-40 buffer; TNFR2 precipitated with MR2-1 antibody and protein G agarose; immunoblot with anti-huTNFR2 and anti-TRAF2. For orientation: In western blotting, separated proteins are transferred to a membrane and probed.

Results are given in words; binding and its absence hold for the method and conditions named. Binding seen in cells or lysates may run through a third protein. Some binding calls cover weakened binding; strength is not graded here.

B1: TRAF2 (endogenous in R2 MEF) (protein, UniProt P39429 1-501)
chain: MAAASVTSPGSLELLQPGFSKTLLGTRLEAKYLCSACKNILRRPFQAQCGHRYCSFCLTSILSSGPQNCAACVYEGLYEEGISILESSSAFPDNAARREVESLPAVCPNDGCTWKGTLKEYESCHEGLCPFLLTECPACKGLVRLSEKEHHTEQECPKRSLSCQHCRAPCSHVDLEVHYEVCPKFPLTCDGCGKKKIPRETFQDHVRACSKCRVLCRFHTVGCSEMVETENLQDHELQRLREHLALLLSSFLEAQASPGTLNQVGPELLQRCQILEQKIATFENIVCVLNREVERVAVTAEACSRQHRLDQDKIEALSNKVQQLERSIGLKDLAMADLEQKVSELEVSTYDGVFIWKISDFTRKRQEAVAGRTPAIFSPAFYTSRYGYKMCLRVYLNGDGTGRGTHLSLFFVVMKGPNDALLQWPFNQKVTLMLLDHNNREHVIDAFRPDVTSSSFQRPVSDMNIASGCPLFCPVSKMEAKNSYVRDDAIFIKAIVDLTGL
Consider B1, for which the binding result is “binds”.
